Test results taken from PubChem BioAssay AID463183 (Sanford-Burnham Center for Chemical Genomics, 2010).
The other results are listed elsewhere or left out. Shown are side measurements of this screen, not its main read-out; they come without a call. Most of these compounds were active or inconclusive in the main read-out, so they are no random draw.

Experiment: hepatocyte lipid droplet accumulation inhibitors, confirmation, imaging, AML12 mouse hepatocytes, single concentration, high-content (AID 463183);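 also: cells counted after overnight compound exposure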
Settings: BODIPY lipid droplet imaging, measured here: cell count, cytotoxicity, at 5.2 µM, droplets induced with 100 µM oleic acid

Compound | cell count [cells]
O=C(CCNC(=O)C1CCN(S(=O)(=O)c2ccccc2)CC1)NCc1ccc(Cl)cc1Cl | 1630
O=C(COc1ccc(Cl)cc1)Nc1ccc2c(c1)C(=O)NC2=O | 1550
O=C(CN(CC1CCCO1)S(=O)(=O)c1ccc(S(=O)(=O)NC2CC2)cc1)Nc1ccccc1 (centres undefined) | 1590
COc1nc(C)nc2c1ccc1ccccc12 | 1560
COc1ccc(C(=O)OCC(=O)NC(C)CCc2ccccc2)c(OC)c1 (centres undefined) | 1590
CCNc1nc(N)c(C(=O)c2ccc(Cl)s2)s1 | 1570
CCc1ccc(NC(=O)CSc2nnc(C)c(=O)n2N)cc1 | 1490
CCOc1ccc(CN(C)C(=O)CNC(=O)c2ccc(Br)o2)cc1OC | 1510
Cc1nc(NC(=O)c2ccc(OCC(C)C)cc2)sc1Cc1ccc2c(c1)OCO2 | 1600
COc1ccc(Cl)cc1NC(=O)Nc1ccc(C(=O)N2CCCC2)cc1 | 1660
COc1ccc2c(c1)c(CC(=O)Nc1ccccc1OC)c(C)n2C(=O)c1ccc(Cl)cc1 | 1080
Cc1ccc2[nH]c(C)c(CC(=O)NCc3ccccc3)c2c1 | 1620
COc1ccc(C[C@H]2CN3C(=NC[C@H]3Cc3ccccc3)N2CCNC(=O)c2ccc(C)c(Br)c2)cc1 | 1500
CCOc1ccccc1NC(=O)CCC(=O)Nc1ccccc1OCC | 1630
O=C(NCc1ccco1)c1ccc(Cn2c(=O)c3ccccc3n(Cc3ccc(Cl)cc3)c2=O)cc1 | 1510
O=C(CNc1ccccc1)N/N=C/c1cn(-c2ccccc2)nc1-c1ccccc1 | 1690
COc1cccc(N=Nc2c(C)[nH]n(-c3ccccc3)c2=O)c1 | 1730
CCOc1ccccc1NC(=O)C1CCN(C(=O)NCc2ccccc2)CC1 | 1650
O=C(Nc1ccc(-c2csc(Nc3ccc(Cl)cc3)n2)cc1)c1cccc(C(F)(F)F)c1 | 1560
CSc1ccc(NC(=O)N2CCC(C(=O)c3ccc(F)cc3)CC2)cc1 | 1600

Reprinted from the results shown (3 entries):
Compound | cell count [cells]
COc1ccc(C[C@H]2CN3C(=NC[C@H]3Cc3ccccc3)N2CCNC(=O)c2ccc(C)c(Br)c2)cc1 | 1500
CCOc1ccccc1NC(=O)CCC(=O)Nc1ccccc1OCC | 1630
O=C(NCc1ccco1)c1ccc(Cn2c(=O)c3ccccc3n(Cc3ccc(Cl)cc3)c2=O)cc1 | 1510

(further entries)

Compound | cell count [cells]
COc1ccc(C(=O)OC(C)C(=O)NC(C)CCc2ccccc2)cc1[N+](=O)[O-] (centres undefined) | 1670
O=C(NCc1cccs1)C1CCC(CNS(=O)(=O)c2cccs2)CC1 (centres undefined) | 1640
Oc1ccc2ccccc2c1N=Nc1ccccc1F | 1460
Cc1ccc(N2C(=O)c3ccccc3NC2(C(=O)O)c2ccccc2)cc1Cl (centres undefined) | 1250
COc1cc(NC(=O)c2oc3ccccc3c2C)ccc1NC(=O)c1ccco1 | 1610
CCOC(=O)c1sc2cc([N+](=O)[O-])cc(SCCO)c2c1N | 1710
COC(=O)c1cc(C)sc1NC(=O)C1CC(=O)NN1Cc1ccccc1 (centres undefined) | 1610
C=C(C)C(=O)N1CC2(CC(c3cccc(NC(=O)/C=C\C=C/C)c3)=NO2)C[C@H]1C(N)=O (some centres undefined) | 1730
c1ccc(-c2csc(NNC3=NCCCCC3)n2)cc1 | 1560
N/C(=N\c1nc2c(c(=O)[nH]1)CCCC2)Nc1ccc(Oc2ccccc2)cc1 | 1580
O=[N+]([O-])c1ccccc1N/N=C\c1ccccc1Cl | 1600
CCN(CC)S(=O)(=O)c1ccc(S(=O)(=O)N(CC(=O)Nc2ccccc2)Cc2ccco2)cc1 | 1560
CC(C)(C)c1ccc(-c2nnc(SCC(=O)Nc3sc4c(c3C#N)CCCC4)o2)cc1 | 1630
COc1ccc(OC)c(NC(=O)CCCNC(=O)c2ccc(Cl)cc2)c1 | 1660
CCOc1ccc2nc(NC(=O)CSc3nc4ccccc4c(=O)n3Cc3ccco3)sc2c1 | 1520
COc1ccc(CCNC(=O)c2ccc(CNc3nc(=S)[nH]c4ccccc34)cc2)cc1OC | 1630
O=C(Oc1cccc(/C=N/Nc2nc(Nc3ccccc3)nc(N3CCOCC3)n2)c1)c1ccco1 | 1100
COc1cc(NC(=O)c2cccs2)c(OC)cc1NC(=O)CCC(=O)Nc1ccc2ncccc2c1 | 1560
O=C(NCCc1cccnc1)c1cc(COc2ccc(F)cc2F)on1 | 1660
